From publication PMC11898703
No constants are given. Whether binding was seen depends on the method and setting. For some of these results: A result given as binding can be weak or reduced; the word gives no strength. For some of these results: Binding seen in cells or lysates may run through a third protein. For some of these results: Tags and fused reporters may be left off the sequences shown.

Tests used:
[1] = molecular target: T1, FliW-3×FLAG (Clostridioides difficile) (UniProt Q18CX4); test: co-IP; lysates of C. difficile CD1015ΔfliCΔfliWΔcsrAΔtcdR co-expressing FliW-3×FLAG and TcdR-6×His; anti-[…] magnetic agarose, room temperature 20 min; Western blot with anti-FLAG or anti-His; control strain with FliW lacking the 3×FLAG tag
T1 sequence: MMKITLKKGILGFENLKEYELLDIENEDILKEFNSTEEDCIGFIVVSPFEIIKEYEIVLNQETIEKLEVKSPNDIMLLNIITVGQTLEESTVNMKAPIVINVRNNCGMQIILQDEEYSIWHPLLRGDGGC

[2] = molecular target: T2, FliW-T25 (Clostridioides difficile) (UniProt Q18CX4); test: two-hybrid; bacterial two-hybrid (BACTH) in E. coli BTH101; T25 and T18 fusions co-transformed; cultures dotted on LB-X-Gal-IPTG indicator plates, blue colonies positive, white colonies no interaction
T2 sequence: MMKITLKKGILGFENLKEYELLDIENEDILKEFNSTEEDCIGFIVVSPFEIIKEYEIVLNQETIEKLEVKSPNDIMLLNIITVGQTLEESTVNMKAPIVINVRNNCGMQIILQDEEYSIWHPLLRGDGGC

[3] = molecular target: T2, FliW-T25 (Clostridioides difficile); test: two-hybrid
[4] = molecular target: FliC-T25 (Clostridioides difficile); test: two-hybrid; bacterial two-hybrid (BACTH) in E. coli BTH101; T25 and T18 fusions co-transformed; cultures dotted on LB-X-Gal-IPTG indicator plates, blue colonies positive, white colonies no interaction

TcdR-6×His (Clostridioides difficile)
binding [1]: binds

FliC-T18 (Clostridioides difficile)
binding [2]: binds

TcdR-T18 (Clostridioides difficile)
binding [3]: binds

B1: CsrA-T18 (protein, UniProt Q18CX3 1-70)
chain: MLVISRKKDEAVLIGDNIEVKVVGVDGNNIKLAISAPNNISILRKEIYEKVKNENIKATNKNIKILKSLK
binding [4]: no binding
